The other results are listed elsewhere or left out. Further columns of the screen follow, without active or inactive calls. Most of these compounds were active or inconclusive in the main read-out, so they are no random draw. Potencies come from curve fits of mixed quality, noted in brackets.
Assay: qHTS Assay for Lipid Storage Modulators in Drosophila S3 Cells;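 as to cell number change: cells counted by Cell Tracker Red CMTPX staining in the red channel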
Settings: BODIPY lipid droplet fluorescence, 18-24 h; for cell number change: measured here: cell count max response, cells fed with added oleic acid
Procedure, shortened: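 Laser-scanning cytometry quantifies lipid droplet accumulation (500–530 nm total intensity; droplet/cell object ratio) in oleic acid-fed (400 uM added) Drosophila S3 cells treated with a concentration series. 20 uM Triacsin C defined 100% inhibition.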

[1] = measured here: lipid fluorescence (Fed channel) AC50, cells fed with added oleic acid
[2] = measured here: cell number channel AC50, cells fed with added oleic acid

O=C(NCCc1ccc(F)cc1)Nc1ccccc1Cl
cell number change: 6.94% | AC50 [1]: 6.51 µM [rising, partial curve, poor fit]

O=C(Cn1cc2c(n1)CCCC2)NCc1ccccn1
cell number change: -50.6% | AC50 [2]: 25.9 µM [falling, single point] | AC50 [1]: 9.2 µM [falling, partial curve]

CCCCNC(=O)c1nn2c(C(F)(F)F)cc(-c3ccc(OC)cc3)nc2c1Br
cell number change: -15.1%

CCC(C(=O)NCc1ccc(F)cc1)n1nc(C)n2c(cc3occc32)c1=O (stereo not drawn)
cell number change: 4.2% | AC50 [1]: 29.1 µM [rising, single point]

CCOc1ncccc1C(=O)N(C)CC1COc2ccccc2O1 (stereo not drawn)
cell number change: 34.3% | AC50 [2]: 0.82 µM [rising, partial curve, poor fit]

Cc1ccccc1CN1CCNC(=O)C1CC(=O)NCCC1=CCCCC1 (stereo not drawn)
cell number change: 12.3% | AC50 [2]: 7.31 µM [rising, partial curve, poor fit]

Cc1ccc(CN2CCSc3ccc(C(=O)NCc4cccnc4)cc32)cc1
cell number change: -28.3% | AC50 [1]: 14.6 µM [falling, single point]

O=C(Nc1ccc(F)cc1F)N1CCCN(CCOc2ccccc2)CC1
cell number change: 22.6% | AC50 [2]: 3.66 µM [rising, single point] | AC50 [1]: 29.1 µM [rising, single point]

N#Cc1c(-c2ccc3c(c2)OCO3)csc1N
AC50 [2]: 1.84 µM [rising, partial curve] | AC50 [1]: 2.31 µM [rising, partial curve]

O=C(OCc1ccc(Br)cc1)c1cccnc1Cl
cell number change: 14.1%

CCC(CC)C(=O)Nc1cccc(-c2ccc3nncn3n2)c1
cell number change: -10.1%

Cc1ccc(-c2nnc(SCc3nc(N)nc(Nc4ccccc4C)n3)n2N)cc1
cell number change: 34.5% | AC50 [2]: 0.92 µM [rising, full curve, poor fit]

COCCn1c(SCc2nc(N)nc(Nc3ccccc3C)n2)nc2ccccc2c1=O
cell number change: 5.94%

COC(=O)CNC(=O)c1ccc(NS(=O)(=O)c2cc([N+](=O)[O-])ccc2Cl)cc1
AC50 [1]: 32.6 µM [falling, single point]

C=CCn1c(O)c(N=NC(=O)CNC(=O)c2ccncc2)c2ccccc21
cell number change: -3.28% | AC50 [1]: 0.58 µM [rising, single point]

CC(=O)c1c(C)[nH]c(C(=O)Nc2ccc(C)c(S(=O)(=O)Nc3ccc(C)cc3C)c2)c1C
cell number change: 6.56% | AC50 [1]: 6.51 µM [rising, partial curve]

NS(=O)(=O)c1ccc(CCNC(=O)COC(=O)c2cc([N+](=O)[O-])ccc2N2CCOCC2)cc1
cell number change: -7.23%

CC(=O)c1sc2nc(-c3cccs3)ccc2c1N
cell number change: 62.8% | AC50 [2]: 0.366 µM [rising, full curve] | AC50 [1]: 1.84 µM [rising, partial curve]

CCc1ccc(/C=C2/C(=O)N(c3ccccc3)C(=S)N2CC(=O)OC)s1
cell number change: -15% | AC50 [1]: 32.6 µM [rising, partial curve, poor fit]

Cc1ccc(S(=O)(=O)NC(CC(C)C)C(=O)Nc2nccs2)cc1 (stereo not drawn)
cell number change: 31.4% | AC50 [2]: 9.2 µM [rising, partial curve] | AC50 [1]: 2.31 µM [falling, partial curve]

O=C(Nc1ccnn1C1CCN(C(=O)c2cccc(Cl)c2)CC1)C1CCOC1 (stereo not drawn)
cell number change: 17% | AC50 [1]: 18.4 µM [rising, single point]

CC1CCc2nc3sc4c(c3c(N)c2C1)CCCC4 (stereo not drawn)
cell number change: 12.3% | AC50 [1]: 0.092 µM [rising, full curve]

Cc1cc(OCC(=O)NCCc2cccc(F)c2)c2c(C)cc(=O)oc2c1
cell number change: 32.8% | AC50 [2]: 32.6 µM [rising, single point]

COc1ccc(-c2nn(-c3ccccc3)cc2C2CC(c3cccs3)=NN2C(=O)CCCC(=O)O)cc1 (stereo not drawn)
cell number change: 10.2% | AC50 [2]: 0.13 µM [falling, full curve, poor fit] | AC50 [1]: 0.58 µM [falling, single point]

COc1cc(/C(C)=N/NC(=O)CSc2nncn2C)ccc1OCc1ccccc1Cl
cell number change: -1.49% | AC50 [1]: 0.206 µM [rising, full curve]

COc1ccc(N(CCC(=O)O)S(=O)(=O)c2ccc(C)cc2C)cc1
cell number change: -33.1%

CC(C)NS(=O)(=O)c1cccc2nsnc12
cell number change: 52.3% | AC50 [2]: 29.1 µM [rising, single point] | AC50 [1]: 18.4 µM [rising, single point]

Cc1cccc(C)c1NC(=O)c1cccc2c1C(=O)N(C1CCCCC1)C2
cell number change: 12.6%

O=C(N/N=C(/CC(=O)c1cccs1)C(F)(F)F)c1ccc(O)cc1
cell number change: 48.3% | AC50 [2]: 29.1 µM [rising, single point] | AC50 [1]: 6.51 µM [rising, single point]

Cc1ccc(C)c(OCCC(=O)OCC(=O)NCCNC(=O)COC(=O)CCOc2cc(C)ccc2C)c1
cell number change: -20.7% | AC50 [2]: 0.92 µM [falling, full curve] | AC50 [1]: 1.16 µM [falling, full curve]

CCOC(=O)c1c(C)[nH]c(C)c1S(=O)(=O)NCC(=O)Nc1ccccn1
cell number change: 4.78% | AC50 [1]: 1.03 µM [falling, full curve, poor fit]

O=C(Nc1cccc(S(=O)(=O)N2CCOCC2)c1)C1CCCCN1S(=O)(=O)c1ccccc1 (stereo not drawn)
cell number change: -36.4% | AC50 [2]: 0.731 µM [falling, full curve, poor fit]

COc1ccccc1-n1cnnc1SC1CCOC1=O (stereo not drawn)
cell number change: -11.7% | AC50 [1]: 3.66 µM [falling, single point]

CN(C(=O)C1CCCO1)c1nnc(-c2ccccn2)s1 (stereo not drawn)
cell number change: 9.93% | AC50 [1]: 29.1 µM [rising, single point]

OCCSc1nc2ccccc2n1CCOc1ccccc1
cell number change: -60.2% | AC50 [2]: 29.1 µM [falling, single point]

COCCn1c(SCc2c(F)cccc2Cl)nc2c1c(=O)[nH]c(=O)n2C
AC50 [1]: 0.116 µM [falling, full curve, poor fit]

O=C(c1cc(S(=O)(=O)N2CCCCC2)ccc1N1CCOCC1)N1CCN(Cc2ccccc2)CC1
cell number change: 24.5% | AC50 [2]: 0.00461 µM [falling, full curve, poor fit]

Cc1cccc(C2=NOC(=O)/C2=C\c2ccccc2F)c1
cell number change: 5.36% | AC50 [1]: 6.51 µM [rising, single point]

Cc1cc(OCC(=O)Nc2ncn[nH]2)ccc1Cl
cell number change: -36.6% | AC50 [2]: 1.46 µM [falling, partial curve] | AC50 [1]: 0.92 µM [falling, partial curve]

CCN(CC)S(=O)(=O)c1ccc(OC)c(-n2cnnn2)c1
cell number change: -7.67% | AC50 [1]: 29.1 µM [falling, single point]

O=C(O)c1ccc(N=Cc2nc(-c3ccco3)oc2O)cc1
cell number change: -5.32%

N#Cc1cnc(Nc2nc3ccccc3o2)nc1-c1ccccc1
cell number change: 3.75% | AC50 [1]: 0.103 µM [falling, full curve, poor fit]

CCCCn1c(=N)n(CC(O)COc2cccc(C)c2)c2ccccc21 (stereo not drawn)
cell number change: -70.7% | AC50 [1]: 29.1 µM [falling, single point]

Cc1cc(N)n(-c2ccc(S(=O)(=O)c3ccc(C(C)C)cc3)cc2)n1
cell number change: 44.4% | AC50 [2]: 25.9 µM [rising, single point]

CCS(=O)(=O)NCCc1csc(-c2ccccc2)n1
cell number change: 8.55% | AC50 [2]: 3.66 µM [rising, single point] | AC50 [1]: 2.31 µM [rising, partial curve]

CCOC(=O)Nc1ccc2c(c1)N(CCCN(C)C)c1ccccc1CC2
cell number change: 13.3% | AC50 [1]: 29.1 µM [rising, single point]

CCOc1ccc(C(C(=O)NCC2CCCO2)N(Cc2cccc(OC)c2)C(=O)c2snc(C(N)=O)c2N)cc1 (stereo not drawn)
cell number change: 8.12% | AC50 [1]: 0.00411 µM [rising, full curve, poor fit]

CCn1c(CNC(=O)c2cccc(C)c2)nnc1SCC(=O)Nc1nnc(C)s1
cell number change: 8.7%

O=C(NCCN1CCOCC1)c1ccc(Cl)c(S(=O)(=O)N2CCCC2)c1
cell number change: 31.9%

O=C(NC1CCCCC1)c1cc(S(=O)(=O)N2CCCC2)ccc1Cl
cell number change: 12.8% | AC50 [1]: 2.31 µM [rising, single point]

COc1cc(/C=N/Nc2ccc(C(F)(F)F)cn2)cc(OC)c1O
cell number change: 13.7% | AC50 [1]: 18.4 µM [rising, single point]

CC1(C)Cc2c(sc3c2c(=N)n(Cc2ccco2)c(=O)n3CC(=O)Nc2ccccc2)CO1
cell number change: 18.7% | AC50 [2]: 0.461 µM [rising, full curve]

CCOC(=O)CN1N=C(/C=C/c2ccc(OC)cc2)CCC1=O
cell number change: 17.2%

CN1C(=O)C(O)(CC(=O)c2cccs2)c2ccccc21 (stereo not drawn)
cell number change: 0.311% | AC50 [1]: 0.082 µM [falling, full curve, poor fit]

CC(=O)NC1C(=O)N=C(SCC(=O)NC2CCCCC2)NC1=O (stereo not drawn)
cell number change: -8.37% | AC50 [1]: 23.1 µM [falling, single point]

COc1ccc(C(=O)C2CCCN(Cc3sc(N4CCCC4)nc3Cl)C2)c(OC)c1 (stereo not drawn)
cell number change: 1.2%

O=[N+]([O-])c1ccc(Cl)c(NC2=NCCCCC2)c1
cell number change: 13.7% | AC50 [1]: 0.184 µM [falling, full curve, poor fit]

O=C(Nc1ccc(S(=O)(=O)N2CCCC2)cc1)c1c(F)cccc1F
AC50 [1]: 0.164 µM [falling, full curve, poor fit]

COc1ccc(Cn2c(CCC(=O)NCCC(C)C)nc3ncccc3c2=O)cc1
cell number change: 19.3% | AC50 [1]: 3.66 µM [rising, full curve, poor fit]

O=C(NC12CC3CC(CC(C3)C1)C2)C1=COCCO1
cell number change: -12.6% | AC50 [1]: 29.1 µM [rising, single point]

O=C(Nc1ccc2ccccc2c1)c1ccc(Cl)cc1
AC50 [1]: 1.84 µM [falling, full curve]

COc1ccc(-c2n[nH]c3c2C(c2ccc(OC)c(OC)c2)N(c2ccccc2)C3=O)cc1 (stereo not drawn)
AC50 [2]: 1.84 µM [rising, partial curve] | AC50 [1]: 2.91 µM [rising, partial curve]
